Measurements published in paper PMC11145777.
These are yes or no findings as the source states them, for the method shown. In cells and extracts the contact can be indirect. Some results given as binding are weak or reduced against the parent protein; the word gives no strength.

Protein sequences, listed by entry. Tags and fused reporters are not part of them.
UniProt P16401: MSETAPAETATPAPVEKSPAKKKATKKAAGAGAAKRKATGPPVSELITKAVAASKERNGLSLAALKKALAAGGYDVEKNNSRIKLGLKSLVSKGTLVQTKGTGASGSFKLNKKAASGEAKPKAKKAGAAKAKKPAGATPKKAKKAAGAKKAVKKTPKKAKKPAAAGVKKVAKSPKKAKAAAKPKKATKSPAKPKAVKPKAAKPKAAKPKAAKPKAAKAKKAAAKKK

Experiments:
HA-CpA = HA-CpA (UniProt P49450); experiment: co-IP; native (unfixed) ChIP on mono-nucleosomes: native CpA from untransfected HeLa, GFP-CpA and HA-CpA from transfected HeLa, Western for H1.5 (three antibodies) and H2A; H3 ChIP done sequentially after the native CpA ChIP
[1] = target: native CENP-A (human (endogenous in HeLa)) (UniProt P49450); experiment: as above

binding (HA-CpA): binds
binding [1]: binds
Substance: linker histone H1.5 (from UniProt P16401 1-226)
